Data published in the supplement of paper PMC12823440, “Inhibitors supercharge kinase turnover through native proteolytic circuits” (Nature, 2025).
Some of the results follow. The calls rarely recur for the same compound in another form.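 Kinases, fused to nanoluciferase, were expressed in K562 cells; luminescence was measured every 4 h from 2 to 18 h as percent of control (DMSO = 100%, positive control = 0%). A time point is decreased if signal falls significantly (2 sigma). Hits were called by the authors by a rule that is not shown; the count of time points alone does not decide it.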

Chains of the proteins cited; added tags and fusions are not shown. Lines headed by an entry give the natural chain unless they say otherwise; changes in a name come on top.
UniProt O96013: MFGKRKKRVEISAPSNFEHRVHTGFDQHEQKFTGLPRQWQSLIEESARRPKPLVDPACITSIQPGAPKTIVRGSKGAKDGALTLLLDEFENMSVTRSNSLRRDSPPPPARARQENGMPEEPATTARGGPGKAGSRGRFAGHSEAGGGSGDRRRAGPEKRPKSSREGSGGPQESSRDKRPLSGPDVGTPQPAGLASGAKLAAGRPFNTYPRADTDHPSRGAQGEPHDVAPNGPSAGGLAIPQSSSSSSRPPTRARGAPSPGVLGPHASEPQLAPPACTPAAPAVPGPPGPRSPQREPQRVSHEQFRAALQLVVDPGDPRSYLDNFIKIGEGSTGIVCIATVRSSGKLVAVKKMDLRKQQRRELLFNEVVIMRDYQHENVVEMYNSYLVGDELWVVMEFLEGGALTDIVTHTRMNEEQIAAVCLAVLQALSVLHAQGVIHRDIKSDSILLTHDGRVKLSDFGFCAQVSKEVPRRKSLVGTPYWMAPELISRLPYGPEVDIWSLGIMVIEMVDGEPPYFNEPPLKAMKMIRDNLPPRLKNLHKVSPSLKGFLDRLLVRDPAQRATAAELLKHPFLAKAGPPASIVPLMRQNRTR
UniProt P07333, whole entry: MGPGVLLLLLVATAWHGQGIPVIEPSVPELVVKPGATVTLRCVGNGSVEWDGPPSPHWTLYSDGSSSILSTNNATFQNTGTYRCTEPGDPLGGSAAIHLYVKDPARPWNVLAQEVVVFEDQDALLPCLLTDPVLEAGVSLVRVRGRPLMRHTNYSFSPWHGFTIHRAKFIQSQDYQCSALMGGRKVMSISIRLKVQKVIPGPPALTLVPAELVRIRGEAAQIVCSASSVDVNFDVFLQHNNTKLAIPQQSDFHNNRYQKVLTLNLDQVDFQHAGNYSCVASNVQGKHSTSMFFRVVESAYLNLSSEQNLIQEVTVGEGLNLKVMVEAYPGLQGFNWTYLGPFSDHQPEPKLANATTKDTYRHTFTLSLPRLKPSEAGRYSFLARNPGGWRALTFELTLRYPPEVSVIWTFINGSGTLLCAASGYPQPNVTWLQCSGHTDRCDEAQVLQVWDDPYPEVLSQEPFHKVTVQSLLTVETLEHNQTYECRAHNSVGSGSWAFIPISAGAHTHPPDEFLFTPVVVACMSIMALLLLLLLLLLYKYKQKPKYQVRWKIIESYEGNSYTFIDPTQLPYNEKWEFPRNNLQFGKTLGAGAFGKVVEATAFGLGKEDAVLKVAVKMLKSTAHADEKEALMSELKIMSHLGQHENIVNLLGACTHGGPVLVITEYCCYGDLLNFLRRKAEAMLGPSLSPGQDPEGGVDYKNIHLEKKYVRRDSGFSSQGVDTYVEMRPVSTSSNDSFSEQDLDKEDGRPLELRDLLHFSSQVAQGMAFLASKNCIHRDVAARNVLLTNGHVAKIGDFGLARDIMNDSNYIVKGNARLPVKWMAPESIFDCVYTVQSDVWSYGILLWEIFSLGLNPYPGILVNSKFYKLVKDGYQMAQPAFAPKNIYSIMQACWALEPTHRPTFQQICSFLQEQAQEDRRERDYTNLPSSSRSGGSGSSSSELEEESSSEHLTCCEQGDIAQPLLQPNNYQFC
UniProt Q6PHR2: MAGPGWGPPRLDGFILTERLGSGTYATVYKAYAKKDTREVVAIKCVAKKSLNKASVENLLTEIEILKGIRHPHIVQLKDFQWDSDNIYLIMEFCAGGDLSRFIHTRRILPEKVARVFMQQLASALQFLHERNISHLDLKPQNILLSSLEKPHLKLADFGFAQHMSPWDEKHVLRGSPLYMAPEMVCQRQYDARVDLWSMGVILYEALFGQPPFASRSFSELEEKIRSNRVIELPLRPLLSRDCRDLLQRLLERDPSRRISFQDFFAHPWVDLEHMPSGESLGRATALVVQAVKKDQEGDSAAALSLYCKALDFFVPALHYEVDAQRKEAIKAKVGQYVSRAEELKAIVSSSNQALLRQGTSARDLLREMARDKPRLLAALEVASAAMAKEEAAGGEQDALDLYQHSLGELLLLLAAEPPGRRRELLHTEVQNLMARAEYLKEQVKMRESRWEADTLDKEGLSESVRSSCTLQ
UniProt P07947, whole entry, looked up: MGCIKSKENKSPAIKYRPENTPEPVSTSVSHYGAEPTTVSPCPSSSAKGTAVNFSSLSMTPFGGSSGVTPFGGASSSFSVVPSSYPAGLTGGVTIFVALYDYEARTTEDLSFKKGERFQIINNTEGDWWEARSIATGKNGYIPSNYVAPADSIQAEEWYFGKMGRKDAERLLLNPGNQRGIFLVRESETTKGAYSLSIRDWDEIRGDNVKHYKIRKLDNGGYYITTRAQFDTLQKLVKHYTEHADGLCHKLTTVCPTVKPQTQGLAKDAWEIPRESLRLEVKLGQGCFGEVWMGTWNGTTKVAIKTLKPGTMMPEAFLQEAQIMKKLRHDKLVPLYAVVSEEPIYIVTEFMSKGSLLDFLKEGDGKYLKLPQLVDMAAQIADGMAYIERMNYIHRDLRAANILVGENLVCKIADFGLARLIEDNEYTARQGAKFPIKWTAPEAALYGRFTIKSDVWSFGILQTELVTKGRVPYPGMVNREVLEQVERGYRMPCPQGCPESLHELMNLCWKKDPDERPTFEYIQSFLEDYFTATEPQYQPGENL
UniProt Q9UQB9: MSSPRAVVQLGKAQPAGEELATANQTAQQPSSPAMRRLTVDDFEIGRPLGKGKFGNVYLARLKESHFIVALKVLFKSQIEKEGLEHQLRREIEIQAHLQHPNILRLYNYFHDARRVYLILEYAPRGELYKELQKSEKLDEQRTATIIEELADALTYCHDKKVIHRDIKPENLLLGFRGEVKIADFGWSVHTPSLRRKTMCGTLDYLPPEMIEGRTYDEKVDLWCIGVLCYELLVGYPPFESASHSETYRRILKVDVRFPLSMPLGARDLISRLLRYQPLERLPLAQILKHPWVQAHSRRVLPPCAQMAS
UniProt Q9Y616: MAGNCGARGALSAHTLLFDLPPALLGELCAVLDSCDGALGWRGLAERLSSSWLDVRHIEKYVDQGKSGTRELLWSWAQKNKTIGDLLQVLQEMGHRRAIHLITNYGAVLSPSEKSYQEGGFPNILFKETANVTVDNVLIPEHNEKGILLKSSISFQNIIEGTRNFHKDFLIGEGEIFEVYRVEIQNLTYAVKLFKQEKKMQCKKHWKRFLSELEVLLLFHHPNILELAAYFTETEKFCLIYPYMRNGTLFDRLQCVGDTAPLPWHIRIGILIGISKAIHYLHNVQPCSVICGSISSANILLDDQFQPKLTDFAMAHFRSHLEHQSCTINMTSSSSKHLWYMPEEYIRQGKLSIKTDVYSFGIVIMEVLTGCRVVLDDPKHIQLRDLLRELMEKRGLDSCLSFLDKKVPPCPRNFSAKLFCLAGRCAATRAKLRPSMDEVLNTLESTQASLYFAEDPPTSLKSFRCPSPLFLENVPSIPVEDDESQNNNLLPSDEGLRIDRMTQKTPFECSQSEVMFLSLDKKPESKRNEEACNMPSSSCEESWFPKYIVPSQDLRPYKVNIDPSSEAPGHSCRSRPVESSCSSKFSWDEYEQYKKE
UniProt P51813: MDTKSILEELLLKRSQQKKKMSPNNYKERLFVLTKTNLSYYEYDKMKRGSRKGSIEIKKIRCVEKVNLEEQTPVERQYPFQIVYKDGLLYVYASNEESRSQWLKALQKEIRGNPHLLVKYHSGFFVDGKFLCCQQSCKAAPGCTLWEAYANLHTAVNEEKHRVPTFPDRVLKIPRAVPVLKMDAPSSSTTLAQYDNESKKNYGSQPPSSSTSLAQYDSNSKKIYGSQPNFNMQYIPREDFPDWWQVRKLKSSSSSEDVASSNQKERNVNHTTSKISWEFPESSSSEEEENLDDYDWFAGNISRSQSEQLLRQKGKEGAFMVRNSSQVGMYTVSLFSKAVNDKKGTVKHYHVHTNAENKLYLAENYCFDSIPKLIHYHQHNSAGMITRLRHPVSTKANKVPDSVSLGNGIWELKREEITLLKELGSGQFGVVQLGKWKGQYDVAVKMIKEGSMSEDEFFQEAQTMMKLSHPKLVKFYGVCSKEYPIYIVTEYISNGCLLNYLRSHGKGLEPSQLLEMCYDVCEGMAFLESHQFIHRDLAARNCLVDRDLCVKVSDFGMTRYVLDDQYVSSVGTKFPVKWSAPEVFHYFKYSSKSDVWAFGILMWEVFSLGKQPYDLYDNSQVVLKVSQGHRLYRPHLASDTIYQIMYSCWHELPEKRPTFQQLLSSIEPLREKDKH
UniProt P36888, whole entry: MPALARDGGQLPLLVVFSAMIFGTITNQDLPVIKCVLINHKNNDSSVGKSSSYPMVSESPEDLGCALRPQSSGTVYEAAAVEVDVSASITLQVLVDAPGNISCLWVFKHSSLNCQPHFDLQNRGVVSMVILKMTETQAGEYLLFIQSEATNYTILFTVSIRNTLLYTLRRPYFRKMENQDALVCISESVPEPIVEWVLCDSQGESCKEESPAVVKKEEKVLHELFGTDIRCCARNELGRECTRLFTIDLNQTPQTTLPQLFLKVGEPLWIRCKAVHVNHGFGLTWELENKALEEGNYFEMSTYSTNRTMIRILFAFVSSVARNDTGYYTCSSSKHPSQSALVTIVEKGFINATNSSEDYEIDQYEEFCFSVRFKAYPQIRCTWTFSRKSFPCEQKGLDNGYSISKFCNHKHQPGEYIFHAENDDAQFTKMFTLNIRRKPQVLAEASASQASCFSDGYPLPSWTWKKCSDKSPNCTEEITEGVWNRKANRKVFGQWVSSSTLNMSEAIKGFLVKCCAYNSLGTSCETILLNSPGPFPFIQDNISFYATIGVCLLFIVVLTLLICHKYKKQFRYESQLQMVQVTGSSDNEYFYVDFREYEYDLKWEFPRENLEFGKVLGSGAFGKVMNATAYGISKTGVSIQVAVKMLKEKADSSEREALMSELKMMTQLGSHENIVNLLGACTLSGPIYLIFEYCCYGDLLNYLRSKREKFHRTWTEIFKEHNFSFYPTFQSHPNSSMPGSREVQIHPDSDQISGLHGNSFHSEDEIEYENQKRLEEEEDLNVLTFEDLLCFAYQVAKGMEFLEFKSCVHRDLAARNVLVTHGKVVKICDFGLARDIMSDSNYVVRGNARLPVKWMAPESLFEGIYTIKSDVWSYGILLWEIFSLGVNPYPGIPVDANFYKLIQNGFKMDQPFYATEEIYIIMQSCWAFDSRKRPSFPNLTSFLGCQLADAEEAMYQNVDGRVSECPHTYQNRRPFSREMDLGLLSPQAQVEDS
UniProt Q9BRS2: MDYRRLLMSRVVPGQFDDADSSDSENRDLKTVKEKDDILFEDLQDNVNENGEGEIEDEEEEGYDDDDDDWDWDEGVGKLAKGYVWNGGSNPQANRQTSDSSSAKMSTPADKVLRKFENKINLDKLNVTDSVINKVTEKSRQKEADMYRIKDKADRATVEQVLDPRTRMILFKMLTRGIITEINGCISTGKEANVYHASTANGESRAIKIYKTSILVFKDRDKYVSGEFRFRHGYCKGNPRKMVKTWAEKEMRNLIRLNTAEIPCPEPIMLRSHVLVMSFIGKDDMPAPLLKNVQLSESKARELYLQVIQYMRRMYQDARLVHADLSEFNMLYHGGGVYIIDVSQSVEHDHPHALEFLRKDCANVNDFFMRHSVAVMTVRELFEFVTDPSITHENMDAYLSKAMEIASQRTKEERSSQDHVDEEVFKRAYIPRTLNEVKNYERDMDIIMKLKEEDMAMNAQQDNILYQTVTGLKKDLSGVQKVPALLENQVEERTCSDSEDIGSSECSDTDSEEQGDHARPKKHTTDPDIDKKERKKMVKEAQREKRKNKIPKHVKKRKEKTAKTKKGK
UniProt P42680: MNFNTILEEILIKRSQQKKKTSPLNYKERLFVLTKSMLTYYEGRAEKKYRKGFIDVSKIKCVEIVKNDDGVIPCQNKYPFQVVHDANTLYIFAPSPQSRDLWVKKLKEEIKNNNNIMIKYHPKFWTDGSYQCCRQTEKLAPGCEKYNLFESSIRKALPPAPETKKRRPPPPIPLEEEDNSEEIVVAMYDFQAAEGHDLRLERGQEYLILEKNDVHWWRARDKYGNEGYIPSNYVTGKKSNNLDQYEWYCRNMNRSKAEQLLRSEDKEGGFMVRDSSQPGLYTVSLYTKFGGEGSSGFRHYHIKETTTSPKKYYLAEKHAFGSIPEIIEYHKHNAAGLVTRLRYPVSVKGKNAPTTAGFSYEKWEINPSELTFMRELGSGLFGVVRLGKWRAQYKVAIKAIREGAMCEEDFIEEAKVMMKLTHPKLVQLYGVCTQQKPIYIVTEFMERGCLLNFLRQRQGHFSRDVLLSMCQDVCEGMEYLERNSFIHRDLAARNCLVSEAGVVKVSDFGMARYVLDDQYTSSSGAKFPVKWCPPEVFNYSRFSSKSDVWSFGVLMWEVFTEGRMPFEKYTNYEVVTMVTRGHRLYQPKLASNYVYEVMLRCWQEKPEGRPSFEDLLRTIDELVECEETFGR

Assays:
Experiment in all cases: number of time points (of 5) at which kinase-Nluc abundance scored as decreased, DMSO-normalised (count); higher = more persistent destabilization
Momelotinib = compound: N#CCNC(=O)c1ccc(-c2ccnc(Nc3ccc(N4CCOCC4)cc3)n2)cc1 [Momelotinib]; conditions: 10 µM; K562; 2-18 h
Ruxolitinib (phosphate) = compound: N#CC[C@H](C1CCCC1)n1cc(-c2ncnc3[nH]ccc23)cn1 [Ruxolitinib (phosphate)]; conditions: 10 µM; K562; 2-18 h
Ruxolitinib = compound: N#CC[C@H](C1CCCC1)n1cc(-c2ncnc3[nH]ccc23)cn1 [Ruxolitinib]; conditions: 10 µM; K562; 2-18 h
[1] = compound: N=C(N)NC(=O)c1nc(Cl)c(N)nc1N [Amiloride (hydrochloride)]; conditions: 10 µM; K562; 2-18 h
[2] = compound: N=C(N)NC(=O)c1nc(Cl)c(N)nc1N [Amiloride hydrochloride dihydrate]; conditions: 10 µM; K562; 2-18 h
Lanraplenib (succinate) = compound: Nc1cncc(-c2cn3ccnc3c(Nc3ccc(N4CCN(C5COC5)CC4)cc3)n2)n1 [Lanraplenib (succinate)]; conditions: 10 µM; K562; 2-18 h
Lanraplenib = compound: Nc1cncc(-c2cn3ccnc3c(Nc3ccc(N4CCN(C5COC5)CC4)cc3)n2)n1 [Lanraplenib]; conditions: 10 µM; K562; 2-18 h
IBT6A (hydrochloride) = compound: Nc1ncnc2c1c(-c1ccc(Oc3ccccc3)cc1)nn2[C@@H]1CCCNC1 [IBT6A (hydrochloride)]; conditions: 2.5 µM; K562; 2-18 h
[3] = compound: Nc1ncnc2c1c(-c1ccc(Oc3ccccc3)cc1)nn2[C@@H]1CCCNC1; conditions: 2.5 µM; K562; 2-18 h
PKI-179 (hydrochloride) = compound: O=C(Nc1ccncc1)Nc1ccc(-c2nc(N3CCOCC3)nc(N3C4CCC3COC4)n2)cc1 [PKI-179 (hydrochloride)]; conditions: 2.5 µM; K562; 2-18 h

Measured: number of time points

MAPK1 (UniProt P28482)
3: PKI-179 (hydrochloride)
0: all other assays above

BLK (UniProt P51451)
3: PKI-179 (hydrochloride)
2: IBT6A (hydrochloride)
0: all other assays above

CDK3 (UniProt Q00526)
0: all assays above

AURKB (UniProt Q96GD4)
4: PKI-179 (hydrochloride)
0: all other assays above

BTK (UniProt Q06187)
0: all assays above

DYRK2 (UniProt Q92630)
1: [3]
4: PKI-179 (hydrochloride)
3: IBT6A (hydrochloride)
0: all other assays above

PTK2 (UniProt Q05397)
3: PKI-179 (hydrochloride)
0: all other assays above

GSK3A (UniProt P49840)
0: all assays above

PAK4 (UniProt O96013)
0: all assays above

LIMK2 (UniProt P53671)
3: PKI-179 (hydrochloride)
0: all other assays above

RIPK1 (UniProt Q13546)
3: [3] | PKI-179 (hydrochloride)
0: all other assays above

RPS6KA1 (UniProt Q15418)
0: all assays above

EGFR_L861Q (UniProt P00533)
1: PKI-179 (hydrochloride)
0: all other assays above

RIPK2 (UniProt O43353)
3: PKI-179 (hydrochloride)
1: IBT6A (hydrochloride)
0: all other assays above

CSF1R (UniProt P07333)
4: PKI-179 (hydrochloride)
0: all other assays above

MKNK1 (UniProt Q9BUB5)
3: PKI-179 (hydrochloride)
0: all other assays above

CSNK1D (UniProt P48730)
4: PKI-179 (hydrochloride)
0: all other assays above

ALK (UniProt Q9UM73)
1: PKI-179 (hydrochloride)
0: all other assays above

SPHK1 (UniProt Q9NYA1)
1: PKI-179 (hydrochloride)
0: all other assays above

EGFR_T790M (UniProt P00533)
3: Ruxolitinib
0: all other assays above

ROR2 (UniProt Q01974)
2: PKI-179 (hydrochloride)
0: all other assays above

CDK10 (UniProt Q15131)
4: PKI-179 (hydrochloride)
0: all other assays above

ULK3 (UniProt Q6PHR2)
3: PKI-179 (hydrochloride)
0: all other assays above

ERN1 (UniProt O75460)
2: PKI-179 (hydrochloride)
0: all other assays above

FGFR3 (UniProt P22607)
4: PKI-179 (hydrochloride)
0: all other assays above

FGFR2 (UniProt P21802)
1: [3]
4: PKI-179 (hydrochloride)
0: all other assays above

PTK2B (UniProt Q14289)
1: PKI-179 (hydrochloride)
0: all other assays above

FGFR1 (UniProt P11362)
3: PKI-179 (hydrochloride)
0: all other assays above

DDR1 (UniProt Q08345)
1: IBT6A (hydrochloride)
2: Momelotinib
4: PKI-179 (hydrochloride)
0: all other assays above

FYN (UniProt P06241)
4: PKI-179 (hydrochloride)
0: all other assays above

ARAF (UniProt P10398)
1: PKI-179 (hydrochloride)
0: all other assays above

CAMK2A (UniProt Q9UQM7)
0: all assays above

PLK1 (UniProt P53350)
3: PKI-179 (hydrochloride)
0: all other assays above

MAP2K1 (UniProt Q02750)
0: all assays above

BRAF_V600E
4: PKI-179 (hydrochloride)
0: all other assays above

HER2 (UniProt P04626)
3: PKI-179 (hydrochloride)
0: all other assays above

SRC (UniProt P12931)
0: all assays above

EGFR (UniProt P00533)
1: PKI-179 (hydrochloride)
0: all other assays above

PDGFRB (UniProt P09619)
0: all assays above

EPHA2 (UniProt P29317)
0: all assays above

MAP4K2 (UniProt Q12851)
0: all assays above

LYN (UniProt P07948)
3: PKI-179 (hydrochloride)
0: all other assays above

EGFR_L858R (UniProt P00533)
0: all assays above

EGFR_L718V (UniProt P00533)
0: all assays above

PDK1 (UniProt Q15118)
0: all assays above

EGFR_G719S (UniProt P00533)
2: PKI-179 (hydrochloride)
0: all other assays above

CAMK2G (UniProt Q13555)
3: PKI-179 (hydrochloride)
0: all other assays above

ZAP70 (UniProt P43403)
0: all assays above

PRKCA (UniProt P17252)
0: all assays above

ERBB3 (UniProt P21860)
4: PKI-179 (hydrochloride)
0: all other assays above

AKT1 (UniProt P31749)
2: PKI-179 (hydrochloride)
0: all other assays above

PBK (UniProt Q96KB5)
0: all assays above

CSK (UniProt P41240)
0: all assays above

LCK (UniProt P06239)
0: all assays above

TYK2 (UniProt P29597)
4: PKI-179 (hydrochloride)
3: Momelotinib
0: all other assays above

YES1 (UniProt P07947)
3: PKI-179 (hydrochloride)
0: all other assays above

AURKC (UniProt Q9UQB9)
2: PKI-179 (hydrochloride)
0: all other assays above

CDK2 (UniProt P24941)
0: all assays above

CSNK1A1 (UniProt P48729)
3: PKI-179 (hydrochloride)
1: Momelotinib
0: all other assays above

RAF1 (UniProt P04049)
3: PKI-179 (hydrochloride)
0: all other assays above

IRAK3 (UniProt Q9Y616)
2: PKI-179 (hydrochloride)
0: all other assays above

BRAF (UniProt P15056)
3: PKI-179 (hydrochloride)
0: all other assays above

PIK4CA (UniProt P42356)
4: PKI-179 (hydrochloride)
0: all other assays above

ZAK (UniProt Q9NYL2)
0: all assays above

STK38 (UniProt Q15208)
1: PKI-179 (hydrochloride)
0: all other assays above

FGR (UniProt P09769)
0: all assays above

EGFR_G719S_T790M (UniProt P00533)
0: all assays above

PDPK1 (UniProt O15530)
4: PKI-179 (hydrochloride)
0: all other assays above

PIK4CB (UniProt Q9UBF8)
4: PKI-179 (hydrochloride)
0: all other assays above

LMTK2 (UniProt Q8IWU2)
3: PKI-179 (hydrochloride)
0: all other assays above

CDK6 (UniProt Q00534)
1: PKI-179 (hydrochloride)
0: all other assays above

BMX (UniProt P51813)
2: PKI-179 (hydrochloride)
0: all other assays above

JAK1 (UniProt P23458)
4: PKI-179 (hydrochloride)
0: all other assays above

ABL1 (UniProt P00519)
5: PKI-179 (hydrochloride)
0: all other assays above

RET_M918T (clone: RET_mut) (UniProt P07949)
4: PKI-179 (hydrochloride)
not listed: Ruxolitinib (phosphate) | Ruxolitinib
0: all other assays above

CDK5 (UniProt Q00535)
0: all assays above

INSRR (UniProt P14616)
4: PKI-179 (hydrochloride)
0: all other assays above

MAP2K2 (UniProt P36507)
0: all assays above

AURKA (UniProt O14965)
4: PKI-179 (hydrochloride)
3: Momelotinib
0: all other assays above

SYK (UniProt P43405)
1: PKI-179 (hydrochloride)
0: all other assays above

FLT3 (UniProt P36888)
4: PKI-179 (hydrochloride)
0: all other assays above

ERBB4_R711C (clone: ERBB4_mut) (UniProt Q15303)
4: PKI-179 (hydrochloride)
0: all other assays above

NTRK3 (UniProt Q16288)
4: PKI-179 (hydrochloride)
not listed: Ruxolitinib (phosphate) | Ruxolitinib
0: all other assays above

PRKAA1 (UniProt Q13131)
3: PKI-179 (hydrochloride)
0: all other assays above

CHEK2 (UniProt O96017)
1: PKI-179 (hydrochloride)
0: all other assays above

RET (UniProt P07949)
2: PKI-179 (hydrochloride)
not listed: Ruxolitinib (phosphate) | Ruxolitinib
0: all other assays above

DYRK1B (UniProt Q9Y463)
1: PKI-179 (hydrochloride)
0: all other assays above

MAPK4 (UniProt P31152)
1: PKI-179 (hydrochloride)
0: all other assays above

RIOK1 (UniProt Q9BRS2)
0: all assays above

MAPKAPK2 (UniProt P49137)
0: all assays above

RAF1_S257L (clone: RAF1_mut) (UniProt P04049)
3: PKI-179 (hydrochloride)
0: all other assays above

STK24 (UniProt Q9Y6E0)
0: all assays above

NTRK2 (UniProt Q16620)
4: PKI-179 (hydrochloride)
0: all other assays above

LIMK1 (UniProt P53667)
4: PKI-179 (hydrochloride)
0: all other assays above

TEC (UniProt P42680)
3: PKI-179 (hydrochloride)
0: all other assays above
